Patent publication US20240285571A1, “METHODS OF TREATING BONE INFECTIONS” (MICROBION CORPORATION, priority 2020, published 2024)
Where two headings read alike, the source gives them in different places. At least one compound was matched to its structure with a doubt left.

Experiments:
[1] = system: relevant ATCC QC organisms; assay: Broth microdilution MIC, QC (Example 6); assay type: cell-based
Method: Test Compounds: The test agents BisEDT (MB-1-B3; Lot No. ED268-1-11-01), MB-2B, and MB-6 were stored at room temperature, in the dark, until assayed. The solvent and diluent for the test agents was DMSO (Sigma; St. Louis, MO; Lot No. SHBB9319V) and the prepared stock concentration was 6,464 μg/mL (101× the final test concentration).
Test compounds were evaluated at a concentration range of 0.06-64 μg/mL. For Gram-negative test isolates, amikacin and ceftazidime (alone and with clavulanate at a fixed concentration of 4 μg/mL) were evaluated over a concentration range of 0.06-64 μg/mL; meropenem and levofloxacin were evaluated over a concentration range of 0.008-8 μg/mL. For the testing of S. aureus, clindamycin, daptomycin, levofloxacin and vancomycin were evaluated at a concentration range of 0.008-8 μg/mL; linezolid was tested from 0.03-32 μg/mL. […]
MIC Assay Procedure: MIC values were determined using a broth microdilution procedure described by CLSI (2, 3). […]
(§1) Plates were stacked 3-4 high, covered with a lid on the top plate, placed into plastic bags, and incubated at 35° C. for 16 to 20 hr (vancomycin was read for S. aureus after 24 hr incubation time). The MIC was recorded as the lowest concentration of drug that inhibited visible growth of the organism.

Escherichia coli = assay: Broth microdilution MIC (Example 6); assay type: cell-based; settings: ESBL
Method: (§2) Test Compounds: The test agents BisEDT (MB-1-B3; Lot No. ED268-1-11-01), MB-2B, and MB-6 were stored at room temperature, in the dark, until assayed.
(§3) For testing daptomycin, calcium was supplemented with […] Ca^2+, resulting in a final concentration of […] Ca^2+ (2, 3).
(§4) MIC Assay Procedure: MIC values were determined using a broth microdilution procedure described by CLSI (2, 3).
(§5) The Biomek 2000 was then used to make 2-fold serial dilutions in the mother plates from column 1 through column 11. The wells of column 12 contained no drug and served as the organism growth control wells for the assay.
(§6) The test panels were prepared on the Biomek FX instrument which transferred 2 μL of drug solution from each well of a mother plate to the corresponding well of each daughter plate in a single step.
(§7) A standardized inoculum of each test organism was prepared per CLSI methods to equal a 0.5 McFarland standard, followed by a dilution of 1:20. The plates were then inoculated with 10 μL of the diluted inoculum using the Biomek 2000 from low to high drug concentration resulting in a final concentration of approximately 5×10^5 CFU/mL.
as §1

Klebsiella pneumoniae = assay: Broth microdilution MIC (Example 6); assay type: cell-based; settings: K. pneumoniae MMX 9029; ESBL
Method: as §2, §3, §4, §5, §6, §7, §1

S. pneumoniae = S. pneumoniae MMX 6837 (ATCC 49619); cited from earlier work
B. fragilis = B. fragilis MMX 123 (ATCC 25285); cited from earlier work
C. difficile = C. difficile MMX 4381 (ATCC 700057); cited from earlier work
[2] = system: relevant ATCC QC organisms; settings: CLSI established QC range, cited from earlier work
P. aeruginosa = P. aeruginosa MMX 103 (ATCC 27853); cited from earlier work

With `CC(C)(O/N=C(\C(=O)N[C@@H]1C(=O)N2C(C(=O)[O-])=C(C[n+]3ccccc3)CS[C@H]12)c1csc(N)n1)C(=O)O.O=C(O)[C@H]1/C(=C/CO)O[C@@H]2CC(=O)N21` [CAZ + CLAV] the MIC ([1]; E. coli ATCC 25922) was 0.25/4 μg/mL and the MIC ([1]; E. coli ATCC 35218) was ≤0.06/4 μg/mL.

For `CC(C)(O/N=C(\C(=O)N[C@@H]1C(=O)N2C(C(=O)[O-])=C(C[n+]3ccccc3)CS[C@H]12)c1csc(N)n1)C(=O)O.O=C(O)[C@H]1/C(=C/CO)O[C@@H]2CC(=O)N21` [CAZ/CLAV], the MIC (Escherichia coli; E. coli ATCC 35218) was ≤0.06/4 μg/mL, the MIC (Escherichia coli; E. coli MMX 5756) was 0.5/4 μg/mL and the MIC (Escherichia coli; E. coli MMX 5758) was 0.25/4 μg/mL. The MIC (Klebsiella pneumoniae) was 0.12/4 μg/mL.

For `CCC[C@@H]1C[C@@H](C(=O)N[C@@H]([C@H]2O[C@H](SC)[C@H](O)[C@@H](O)[C@H]2O)[C@H](C)Cl)N(C)C1` [Clindamycin], the “CLSI QC range of MIC” value (S. pneumoniae) is given as “(0.03-0.12) μg/mL”, the “CLSI QC range of MIC” value (B. fragilis) is given as “(0.5-2)^1 μg/mL” and the “CLSI QC range of MIC” value (C. difficile) is given as “(2-8) μg/mL”.

In the case of `CCCCCCCCCC(=O)N[C@@H](Cc1c[nH]c2ccccc12)C(=O)N[C@H](CC(N)=O)C(=O)N[C@@H](CC(=O)O)C(=O)N[C@@H]1C(=O)NCC(=O)N[C@@H](CCCN)C(=O)N[C@@H](CC(=O)O)C(=O)N[C@H](C)C(=O)N[C@@H](CC(=O)O)C(=O)NCC(=O)N[C@H](CO)C(=O)N[C@@H]([C@H](C)CC(=O)O)C(=O)N[C@@H](CC(=O)c2ccccc2N)C(=O)O[C@@H]1C` [DAP], the “MIC QC range (in parentheses)” value ([2]; S. aureus ATCC 29213) is listed as “(0.12-”.

For `C[C@H]1COc2c(N3CCN(C)CC3)c(F)cc3c(=O)c(C(=O)O)cn1c23` [Levofloxacin], the “CLSI QC range of MIC” value (S. pneumoniae) is given as “(0.5-2)^1 μg/mL”, the “CLSI QC range of MIC” value (P. aeruginosa) is given as “(0.5-4) μg/mL” and the “MIC QC range (in parentheses)” value ([2]; E. coli ATCC 25922) is given as “(0.008-0.06) μg/mL”. The “MIC QC range (in parentheses)” value ([2]; P. aeruginosa ATCC 27853) was “(0.5-4) μg/mL” and the “MIC QC range (in parentheses)” value ([2]; S. aureus ATCC 29213) was “(0.06-0.5) μg/mL”.
